According to publication PMC2635752:
No constants are given. Whether binding was seen depends on the method and setting. In cells and extracts the contact can be indirect.

By UniProt entry, the sequences of proteins in these tests, tags left out. Where a name states a change or a piece, a line headed by the entry shows the natural chain unless it says otherwise.
UniProt P06837: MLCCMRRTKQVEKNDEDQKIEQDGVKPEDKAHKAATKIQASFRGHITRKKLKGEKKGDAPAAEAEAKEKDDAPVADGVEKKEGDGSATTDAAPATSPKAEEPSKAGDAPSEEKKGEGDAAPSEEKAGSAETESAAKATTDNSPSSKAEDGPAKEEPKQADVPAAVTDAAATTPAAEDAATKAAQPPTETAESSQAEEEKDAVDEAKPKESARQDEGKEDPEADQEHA
UniProt P60879: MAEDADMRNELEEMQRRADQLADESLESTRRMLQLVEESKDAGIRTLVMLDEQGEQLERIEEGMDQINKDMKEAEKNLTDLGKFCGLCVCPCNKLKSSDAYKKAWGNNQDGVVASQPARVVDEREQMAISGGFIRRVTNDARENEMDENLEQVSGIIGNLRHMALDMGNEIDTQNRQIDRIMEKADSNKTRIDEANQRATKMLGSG

Key:
[1] = molecular target: growth-associated protein GAP-43 (mouse (endogenous in N1E-115)) (UniProt P06837); experiment: cross-linking + co-IP; 1 mM DSP on living cells, SDS lysis, 100,000 × g supernatant; rabbit polyclonal anti-GAP-43 and protein A-agarose; two-dimensional gel
[2] = molecular target: growth-associated protein GAP-43 (mouse (endogenous in N1E-115)) (UniProt P06837); experiment: cross-linking + co-IP; cells lysed in 1% NP-40 substitute buffer first; 1 mM DSP added to the low-speed supernatant (15 min, room temperature); glycine and SDS added; 100,000 × g supernatant; monoclonal anti-GAP-43; two-dimensional gel; spots counted, calmodulin cpm divided by 9/4
[3] = molecular target: growth-associated protein GAP-43 (mouse (endogenous in N1E-115)) (UniProt P06837); experiment: cross-linking + co-IP; DMSO or 1 mM DSP on living cells; lysis in NP-40 substitute buffer; nuclei, cytoskeleton and membrane skeleton removed by centrifugation; anti-GAP-43 immunoprecipitation from the 100,000 × g supernatant; two-dimensional gel
[4] = molecular target: growth-associated protein GAP-43 (mouse (endogenous in N1E-115)) (UniProt P06837); experiment: cross-linking + co-IP; 1 mM DSP added to living [35S]-labeled differentiated N1E-115 cells (15 min, room temperature, KRH); lysis in SDS, then NP-40 lysis buffer; 100,000 × g supernatant; monoclonal anti-GAP-43 (clone 91E12) and protein G plus agarose; crosslinks cleaved; two-dimensional gel, fluorography; spots cut out and counted, calmodulin cpm divided by 9/4

binding [1] | binding [2] | binding [3] | binding [4] | Molecule
no binding | no binding | no binding | no binding | synaptosomal associated protein SNAP-25 (from UniProt P60879 1-206)
no binding | no binding | no binding | no binding | Rab5 effector protein rabaptin-5 (protein, UniProt O35551 1-862) MAQPGPAPQPDVSLQQRVAELEKINAEFLRAQQQLEQEFNQKRAKFKELYLAKEEDLKRQNAVLQAAQDDLGHLRTQLWEAQAEMENIKAIATVSENTKQEAIDEVKRQWREEVASLQAIMKETVRDYEHQFHLRLEQERAQWAQYRESAEREIADLRRRLSEGQEEENLENEMKKAQEDAEKLRSVVMPMEKEIAALKDKLTEAEDKIKELEASKVKELNHYLEAEKSCRTDLEMYVAVLNTQKSVLQEDAEKLRKELHEVCHLLEQERQQHNQLKHTWQKANDQFLESQRLLMRDMQRMEIVLTSEQLRQVEELKKKDQEEDEQQRVNKRKDNKKTDTEEEVKIPVVCALTQEESSTPLSNEEEHLDSTHGSVHSLDADLMLPSGDPFSKSDNDMFKDGLRRAQSTDSLGTSSSLQSKALGYNYKAKSAGNLDESDFGPLVGADSVSENFDTVSLGSLQMPSGFMLTKDQERAIKAMTPEQEETASLLSSVTQGMESAYVSPSGYRLVSETEWNLLQKEVHNAGNKLGRRCDMCSNYEKQLQGIQIQEAETRDQVKKLQLMLRQANDQLEKTMKEKQELEDFLKQSAEDSSHQISALVLRAQASEVLLEELQQSFSQAKRDVQEQMAVLMQSREQVSEELVRLQKDNDSLQGKHSLHVSLQLAEDFILPDTVEVLRELVLKYRENIVHVRTAADHMEEKLKAEILFLKEQIQAEQCLKENLEETLQLEIENCKEEIASISSLKAELERIKVEKGQLESTLREKSQQLESLQEMKVNLEEQLKKETAAKATVEQLMFEEKNKAQRLQTELDVSEQVQRDFVKLSQTLQVQLERIRQADSLERIRAILNDTKLTDINQLPET
